Measurements as given in paper PMC4081092.
No constants are given. Whether binding was seen depends on the method and setting. For some assays here: Binding seen in cells or lysates may run through a third protein. Some results given as binding are weak or reduced against the parent protein; the word gives no strength. Where a sequence is shown, tags or fusion partners need not be part of it. Blank lines part the entries; values can stand above or below the binder they belong to.

Columns and labels:
Details in all cases: remark: other sources report otherwise
[1] = molecular target: Full-length U2AF65 coupled to GFP, P26368; experiment: co-IP; GFP-tagged bait and HA-tagged or untagged partners co-expressed in HEK 293T cells, lysate precipitated with the GFP-nanotrap, immunoblot
[2] = molecular target: Full-length U2AF65 coupled to GFP, P26368; experiment: native gel or EMSA; lysates of HEK 293T cells co-expressing the proteins on a non-denaturing gel (7% acrylamide, 80 mM Tris/HCl pH 7.3), blotted and co-stained with two antibodies; co-migration in one band
U2AF35-GFP, Q01081 [3] = molecular target: T1, U2AF35-GFP, Q01081; experiment: co-IP; as a3, with RNase A (1 mg/ml, 30 min) added to the lysis buffer before the GFP pulldown
T1 chain: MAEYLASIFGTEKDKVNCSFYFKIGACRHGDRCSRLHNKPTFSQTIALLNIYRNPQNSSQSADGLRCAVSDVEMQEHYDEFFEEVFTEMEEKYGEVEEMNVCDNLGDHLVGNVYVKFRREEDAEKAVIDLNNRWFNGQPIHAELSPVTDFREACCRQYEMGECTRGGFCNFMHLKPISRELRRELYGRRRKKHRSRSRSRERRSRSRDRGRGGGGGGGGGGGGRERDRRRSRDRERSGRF

U2AF35-GFP, Q01081 [4] = molecular target: T1, U2AF35-GFP, Q01081; experiment: co-IP; GFP-tagged bait and HA-tagged or untagged partners co-expressed in HEK 293T cells, lysate precipitated with the GFP-nanotrap, immunoblot
U2AF35-GFP, Q01081 [5] = molecular target: T1, U2AF35-GFP, Q01081; experiment: native gel or EMSA; lysates of HEK 293T cells co-expressing the proteins on a non-denaturing gel (7% acrylamide, 80 mM Tris/HCl pH 7.3), blotted and co-stained with two antibodies; co-migration in one band

binding [1]: binds | binding [2]: binds
B1: HA-tagged U2AF35, Q01081 1-240 (protein)
chain: T1 chain

binding (U2AF35-GFP, Q01081 [3]): binds | binding (U2AF35-GFP, Q01081 [4]): binds | binding (U2AF35-GFP, Q01081 [5]): binds
B2: HA-tagged U2AF65, P26368 1-475 (protein)
chain: MSDFDEFERQLNENKQERDKENRHRKRSHSRSRSRDRKRRSRSRDRRNRDQRSASRDRRRRSKPLTRGAKEEHGGLIRSPRHEKKKKVRKYWDVPPPGFEHITPMQYKAMQAAGQIPATALLPTMTPDGLAVTPTPVPVVGSQMTRQARRLYVGNIPFGITEEAMMDFFNAQMRLGGLTQAPGNPVLAVQINQDKNFAFLEFRSVDETTQAMAFDGIIFQGQSLKIRRPHDYQPLPGMSENPSVYVPGVVSTVVPDSAHKLFIGGLPNYLNDDQVKELLTSFGPLKAFNLVKDSATGLSKGYAFCEYVDINVTDQAIAGLNGMQLGDKKLLVQRASVGAKNATLVSPPSTINQTPVTLQVPGLMSSQVQMGGHPTEVLCLMNMVLPEELLDDEEYEEIVEDVRDECSKYGLVKSIEIPRPVDGVEVPGCGKIFVEFTSVFDCQKAMQGLTGRKFANRVVVTKYCDPDSYHRRDFW
